Data from publication PMC7444085.
These are yes or no findings as the source states them, for the method shown. In cells and extracts the contact can be indirect. Some binding calls cover weakened binding; strength is not graded here.

Chains of the proteins cited; added tags and fusions are not shown.
UniProt O15524: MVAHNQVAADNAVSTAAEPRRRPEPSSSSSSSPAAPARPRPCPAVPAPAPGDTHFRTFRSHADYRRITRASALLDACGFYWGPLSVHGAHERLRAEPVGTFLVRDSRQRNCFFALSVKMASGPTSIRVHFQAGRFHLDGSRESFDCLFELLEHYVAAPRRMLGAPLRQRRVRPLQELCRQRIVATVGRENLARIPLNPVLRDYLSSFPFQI
UniProt P42224: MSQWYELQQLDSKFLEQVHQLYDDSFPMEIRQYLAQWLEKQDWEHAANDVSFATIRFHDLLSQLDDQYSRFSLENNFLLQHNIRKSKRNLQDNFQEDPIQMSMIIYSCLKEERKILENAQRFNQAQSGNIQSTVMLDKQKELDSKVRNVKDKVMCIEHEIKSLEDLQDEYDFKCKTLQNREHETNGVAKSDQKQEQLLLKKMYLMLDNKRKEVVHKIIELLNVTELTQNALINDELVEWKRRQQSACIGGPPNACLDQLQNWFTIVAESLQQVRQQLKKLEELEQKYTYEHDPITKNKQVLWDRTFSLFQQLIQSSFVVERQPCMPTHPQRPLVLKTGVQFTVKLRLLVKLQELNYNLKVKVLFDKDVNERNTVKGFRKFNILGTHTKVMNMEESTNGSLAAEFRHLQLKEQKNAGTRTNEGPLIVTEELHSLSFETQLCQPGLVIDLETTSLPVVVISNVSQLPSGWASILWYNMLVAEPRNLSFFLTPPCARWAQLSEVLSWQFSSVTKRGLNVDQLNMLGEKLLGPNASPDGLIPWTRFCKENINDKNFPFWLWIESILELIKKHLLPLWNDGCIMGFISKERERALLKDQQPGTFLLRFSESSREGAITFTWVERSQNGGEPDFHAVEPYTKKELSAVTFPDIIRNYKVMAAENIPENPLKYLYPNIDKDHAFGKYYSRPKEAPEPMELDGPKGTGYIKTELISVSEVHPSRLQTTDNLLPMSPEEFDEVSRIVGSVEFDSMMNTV

Biological target: SOCS1 (human (endogenous in NPC cell lines)) (UniProt O15524)
Experiment: co-IP; primary antibody against SOCS1 or STAT1 added to NPC cell lysate, overnight at 4 °C; protein A/G agarose beads 2 h at 4 °C; normal human IgG as negative control; washes with PBS and cell lysis buffer; western blot

Substance: STAT1 (from UniProt P42224 1-750)
- binding: binds
